According to PMC11651612:
Results are given in words; binding and its absence hold for the method and conditions named. Binding seen in cells or lysates may run through a third protein. These calls come from enrichment with a bait or labelling near it, and not all partners need be listed. Sequences can lack the tags named with a protein.

T1: Cdc3-mCherry (C. neoformans) (UniProt J9VUF2)
T1 sequence: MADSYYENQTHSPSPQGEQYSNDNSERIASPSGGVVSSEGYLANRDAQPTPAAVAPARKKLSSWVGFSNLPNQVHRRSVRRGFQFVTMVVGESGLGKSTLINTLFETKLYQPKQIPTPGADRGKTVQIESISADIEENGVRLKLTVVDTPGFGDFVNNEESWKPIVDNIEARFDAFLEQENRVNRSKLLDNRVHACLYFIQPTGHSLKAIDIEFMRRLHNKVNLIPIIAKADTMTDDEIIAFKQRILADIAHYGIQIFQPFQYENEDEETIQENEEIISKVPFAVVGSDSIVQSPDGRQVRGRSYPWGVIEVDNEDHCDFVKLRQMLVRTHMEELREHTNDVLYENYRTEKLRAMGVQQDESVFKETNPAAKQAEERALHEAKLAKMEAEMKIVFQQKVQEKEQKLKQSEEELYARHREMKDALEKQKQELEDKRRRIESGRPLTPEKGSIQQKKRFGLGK

T2: Cdc10-mCherry (C. neoformans) (UniProt J9VMT9)
T2 sequence: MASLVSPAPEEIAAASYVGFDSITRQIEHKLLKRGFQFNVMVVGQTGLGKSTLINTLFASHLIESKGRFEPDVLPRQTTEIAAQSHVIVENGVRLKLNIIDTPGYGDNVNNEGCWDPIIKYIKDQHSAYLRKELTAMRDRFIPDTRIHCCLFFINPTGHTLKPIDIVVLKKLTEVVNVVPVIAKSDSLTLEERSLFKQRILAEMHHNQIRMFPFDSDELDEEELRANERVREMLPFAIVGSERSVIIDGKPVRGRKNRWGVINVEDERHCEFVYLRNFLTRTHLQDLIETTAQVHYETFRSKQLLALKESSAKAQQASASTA

B1: Amino oxidase (protein, UniProt J9VTQ9 1-470)
chain: MRISLIRNMSNAYDSIILGAGWAGSVAAKELTSKGHRVLVLEARDRVGGRARTWTGGGAKIDIGCSWIHGYKEGNPARNIAKSLGVEARLPAAAEGVIYGPNGPLSAEEADALRASLGTAVASSKLPHPSPPPTTSLASALFSPNSALFSTASDQSLAKALARSLEVPLGLKLEKASLKWAGWETTTSYAGSDAAPEGGYQSLVTKVLESSKAEVKLNSPVTSIKETSSGVEVTTRSGETYSAASVLSTIPLGVLKSLPEDFFTPALPAHLRETIAGTHVGVLEKLLVQYPTAWWPNAEKVGSYTFLPTGPEPSASSTLEQVFEGSTLITANFAAPTLPGPTPTLLTYLSETPAKILLQHPTEKVAEAFHSFLVKRFSPSSPPPAPSASALTTWLTDPLSRGATTTPSIISTGERSPMDFKELSRPVWGGKLGFAGEHTEMENRGSVAGAVISGFREADRIDKWLAVRKE
B2: ATP-dependent helicase (protein, UniProt J9VUT0 1-1092)
chain: MEFSNFEGASQYGPDIDDNTSLYSSIPPSVVTAPTISGDIASQLGDLNLGETTSGHAAAGQGYIDDFDEEIERNSFGEGVEHACSYCGIHNPQCVVKCLHCNKWFCNSRGNTSASHIVNHLVKAKHKEVILHKESALGDTIPECYNCGSKNVFMLGFIPAKSDTVVVLLCRQPCAALTSSRDINWDTSQWSAIIDDRQFLSWLVKVPSEAEQLRARQISLAQISKLEELWRENPNAKLEDAEAQSGEEEMQPILLKYEDAYQYQNILGPLVKVEADYDKRMKESQTENDITIRWDMGLNQKRLAWFCMPKLESGEVRLAVGDELKLKFAGTTSSVGIKGLQAFNKAGWGSSGDAVWEGVGSVVKIPNNASDEICLELRRNDGVPFDCTHGFSVDFIWKSTSFDRMQAAMKTFAIDEKSVSGYIYHKLLGHEVEPQVLRTQMPKRFAAPNLPELNHSQMSAVKAVLQKPLSLIQGPPGTGKTVTSASIVYHLAKMNPGQVLVCAPSNVAVDHLCEKIHQTGLKVVRLAAKSREALDSSVDFLSLHSQVANADTHHELQKLIQLRNDQGELSQSDERKYKTLVKACEKDILNAADVICTTCVGAGDPRLAKFKFRTVLIDEATQSAEPECMIPLVMGCKQAVLVGDHQQLGPVIMNKKAARAGLSQSLFERLVILGNHPIRLQVQYRMHPCLSEFSSNLFYEGTLQNGVTAPERLRKNVDFPWPVADTPMFFHQNLGTEEISSSGTSFLNRTEASNVEKMVTKFFKSGVLPNQIGVITPYEGQRSYIASYMQLHGSLKKDLYKEVEVASVDAFQGREKDYIILSCVRSNEHQGIGFLNDPRRLNVALTRAKYGVVILGNPKVLSKHPLWLYLLSHYKEKGCFVEGPLSNLQPSMVQFSRPKKSLAAAMDPFKRRETSAVEFLSKNIGHGQGGQSAAASRFDPAYYRTHNPLSFIPPDAQSVVSQAMTSSAFPLFGSVGGVSGGGGGVGGVGGHGGKNKTYTGYASSVVSQQPMDGGTAGAVLPPRAGQSQFDRFANVVGAGGGMGGVGVGSMGKGRRLSIGSEAASASMYAYGYKAGEDDTQSIAPSQAGMTEF
B3: Alpha-1,4 glucan phosphorylase (protein, UniProt J9VRE2 1-927)
chain: MAELTKENLDKVPASPGSSHSSRTPSLHQPEMSRRSSLSAGHPHSFKQVDPTQIGVPIVTPRKERPGHQRSLTGSYFPSQKGGIVDMPGEWPVGDEKTWREGKKAMTIDQENPQDVANTIVRHVNTSLGRQVYNVDEVAAYQATALSVRDQLLDRWNQTAAYHTAKAPKRVYYLSIEWLVGRSLDNAVLNLGMRNVYEEANRKLGFNFEDLLNEERDAGLGNGGLGRLAACYIDSMATLNLPGWGYGLRYNYGIFKQLISNSGEQLEAPDPWLDRENPWEIARLDVTYPIRFYGRVDPIPNTDRAVWSGGMECLAVAYDTPIPGYGTKNCANIRLWSAKPVQGFDLNSFNAGNYEASVAASSEVENITRVLYPNDNMYAGKKLRVMQQYLWVSASLQDMLRRFTKLDLPWTELPDYVCIQMNDTHPTLAIPELMRILIDEEKLDYNTAWKITQKVFAYTNHTVLPEALERWQLDLFEELLPRHLQIIYRINFDFLGLVAKRWPGDMDRIRRMSIIEEGSPKYVRMAYLAIVSSFKINGVAELHSQLLQATIFRDFVEFKGRDAFTNVTNGITPRRWLLQCNPELAALITHTLGSDDWATNLKLLKNLLPMADNADFRKAFTNIKMDNKCRLASLIEAELGITLNVNSVFMTQIKRLHEYKRQTLNLFGVIYRYLRIKQASPEERKKITKHTAIFAGKAAPGYYVAKLVIRLINNVARVVNDDPDVGDLLKVVFIPDYSVSIAEVLVPASDVSVQISTAGTEASGTSNMKLALNGALLLGTVDGANVEIAEDAGEDQSFLFGHLAEQVDEVRYANTYQPTPLEQRSPELAQTFKAIEAGTFGDGAIYAPLLKTVYEHDYYLVSNDFGSYLSAEKLMDECYDSDKTEWTRKSIITAFNMGDFSSDRSVQDYADGIWSVEPCEVPEGFSI

Biological target: T1, Cdc3-mCherry (C. neoformans)
Test: affinity purification with mass spectrom

| Binder | binding |
| --- | --- |
| B1 | binds |
| B2 | binds |
| B3 | binds |

Biological target: T2, Cdc10-mCherry (C. neoformans)
Test: affinity purification with mass spectrom

| Binder | binding |
| --- | --- |
| B1 | binds |
| B2 | binds |
| B3 | binds |
